For the test, the target named is HA-tagged Arl6IP5 (ADP ribosylation factor-like GTPase 6-interacting protein 5) (human) (UniProt O75915). The test can be described thus: cross-linking; membrane fraction of COS-7 cells transfected with HA-Arl6IP5, in HKM buffer (25 mM Hepes-KOH pH 7.4, 150 mM potassium acetate, 2.5 mM magnesium acetate), various concentrations of BS3, 30 min, room temperature; SDS-PAGE and anti-HA immunoblot.

These are yes or no findings as the source states them, for the method shown. Binding seen in cells or lysates may run through a third protein. Some binding calls cover weakened binding; strength is not graded here. Tags and fused reporters may be left off the sequences shown.

B1: HA-tagged Arl6IP5 (ADP ribosylation factor-like GTPase 6-interacting protein 5) (natural protein, human, UniProt O75915 1-188, looked up)
chain: MDVNIAPLRAWDDFFPGSDRFARPDFRDISKWNNRVVSNLLYYQTNYLVVAAMMISIVGFLSPFNMILGGIVVVLVFTGFVWAAHNKDVLRRMKKRYPTTFVMVVMLASYFLISMFGGVMVFVFGITFPLLLMFIHASLRLRNLKNKLENKMEGIGLKRTPMGIVLDALEQQEEGINRLTDYISKVKE
notes: Arl6IP5, human, cDNA in pCMV vector with N-terminal HA tag; ER membrane protein; tested in the membrane fraction, not solubilised; also called HA-Arl6IP5; PRAF3; source: COS-7, transfected (PEI), crude membrane fraction; not shown: HA, N-terminal, kept
Take B1: the binding result was “binds”.

(Values after paper PMC12136792, “ADP ribosylation factor–like GTPase 6–interacting protein 5 (Arl6IP5) is an ER membrane-shaping protein that modulates ER-phagy” (The Journal of Biological Chemistry, 2025).)
